Measured values taken from publication PMC10957230.
These are yes or no findings as the source states them, for the method shown. In cells and extracts the contact can be indirect. Here binding means that the protein was enriched with, or labelled near, the bait; the list need not be complete. Blank lines part the entries; values can stand above or below the molecule they belong to.

Protein sequences, listed by entry. Tags and fused reporters are not part of them. Residues count along the entry.
UniProt Q2TV84: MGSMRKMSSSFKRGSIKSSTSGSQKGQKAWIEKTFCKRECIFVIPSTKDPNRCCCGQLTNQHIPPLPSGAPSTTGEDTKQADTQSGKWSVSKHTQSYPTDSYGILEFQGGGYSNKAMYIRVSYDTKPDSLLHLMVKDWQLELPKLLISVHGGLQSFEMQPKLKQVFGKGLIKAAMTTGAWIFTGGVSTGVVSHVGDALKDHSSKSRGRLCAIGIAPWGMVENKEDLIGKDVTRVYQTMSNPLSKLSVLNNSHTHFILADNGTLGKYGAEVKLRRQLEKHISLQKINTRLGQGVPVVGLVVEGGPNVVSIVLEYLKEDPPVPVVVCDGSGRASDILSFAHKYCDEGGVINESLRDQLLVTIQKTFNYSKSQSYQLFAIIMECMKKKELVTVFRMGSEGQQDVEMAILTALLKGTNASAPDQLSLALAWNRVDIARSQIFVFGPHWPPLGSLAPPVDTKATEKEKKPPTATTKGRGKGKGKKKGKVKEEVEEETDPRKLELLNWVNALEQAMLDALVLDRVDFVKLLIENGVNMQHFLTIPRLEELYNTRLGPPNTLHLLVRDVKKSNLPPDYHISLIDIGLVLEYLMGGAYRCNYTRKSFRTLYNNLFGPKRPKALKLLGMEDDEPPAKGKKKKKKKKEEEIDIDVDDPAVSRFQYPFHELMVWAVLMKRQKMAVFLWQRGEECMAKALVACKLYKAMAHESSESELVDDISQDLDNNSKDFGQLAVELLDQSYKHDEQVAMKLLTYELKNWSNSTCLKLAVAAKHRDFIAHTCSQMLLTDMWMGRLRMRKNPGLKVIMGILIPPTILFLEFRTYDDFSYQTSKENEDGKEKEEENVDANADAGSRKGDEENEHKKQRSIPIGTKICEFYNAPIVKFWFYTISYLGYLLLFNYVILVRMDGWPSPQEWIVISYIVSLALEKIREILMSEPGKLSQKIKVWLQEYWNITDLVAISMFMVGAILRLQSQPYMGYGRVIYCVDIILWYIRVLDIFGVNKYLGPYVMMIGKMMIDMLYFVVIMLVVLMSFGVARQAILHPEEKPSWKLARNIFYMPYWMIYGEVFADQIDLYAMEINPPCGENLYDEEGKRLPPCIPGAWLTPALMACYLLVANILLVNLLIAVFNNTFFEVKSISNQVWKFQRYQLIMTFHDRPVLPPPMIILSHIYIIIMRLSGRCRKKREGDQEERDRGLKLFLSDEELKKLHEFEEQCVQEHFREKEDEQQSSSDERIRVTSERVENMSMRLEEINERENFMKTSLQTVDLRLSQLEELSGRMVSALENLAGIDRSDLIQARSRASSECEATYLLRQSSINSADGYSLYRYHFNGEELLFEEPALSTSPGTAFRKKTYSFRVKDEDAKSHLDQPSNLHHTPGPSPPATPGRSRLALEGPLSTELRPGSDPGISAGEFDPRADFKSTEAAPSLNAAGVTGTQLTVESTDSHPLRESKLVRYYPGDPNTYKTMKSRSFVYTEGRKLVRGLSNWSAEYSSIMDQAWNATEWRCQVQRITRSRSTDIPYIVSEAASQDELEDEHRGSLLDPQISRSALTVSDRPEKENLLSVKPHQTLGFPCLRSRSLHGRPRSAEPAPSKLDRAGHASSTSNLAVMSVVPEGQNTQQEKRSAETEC
UniProt E9PY61, residues 28-2293: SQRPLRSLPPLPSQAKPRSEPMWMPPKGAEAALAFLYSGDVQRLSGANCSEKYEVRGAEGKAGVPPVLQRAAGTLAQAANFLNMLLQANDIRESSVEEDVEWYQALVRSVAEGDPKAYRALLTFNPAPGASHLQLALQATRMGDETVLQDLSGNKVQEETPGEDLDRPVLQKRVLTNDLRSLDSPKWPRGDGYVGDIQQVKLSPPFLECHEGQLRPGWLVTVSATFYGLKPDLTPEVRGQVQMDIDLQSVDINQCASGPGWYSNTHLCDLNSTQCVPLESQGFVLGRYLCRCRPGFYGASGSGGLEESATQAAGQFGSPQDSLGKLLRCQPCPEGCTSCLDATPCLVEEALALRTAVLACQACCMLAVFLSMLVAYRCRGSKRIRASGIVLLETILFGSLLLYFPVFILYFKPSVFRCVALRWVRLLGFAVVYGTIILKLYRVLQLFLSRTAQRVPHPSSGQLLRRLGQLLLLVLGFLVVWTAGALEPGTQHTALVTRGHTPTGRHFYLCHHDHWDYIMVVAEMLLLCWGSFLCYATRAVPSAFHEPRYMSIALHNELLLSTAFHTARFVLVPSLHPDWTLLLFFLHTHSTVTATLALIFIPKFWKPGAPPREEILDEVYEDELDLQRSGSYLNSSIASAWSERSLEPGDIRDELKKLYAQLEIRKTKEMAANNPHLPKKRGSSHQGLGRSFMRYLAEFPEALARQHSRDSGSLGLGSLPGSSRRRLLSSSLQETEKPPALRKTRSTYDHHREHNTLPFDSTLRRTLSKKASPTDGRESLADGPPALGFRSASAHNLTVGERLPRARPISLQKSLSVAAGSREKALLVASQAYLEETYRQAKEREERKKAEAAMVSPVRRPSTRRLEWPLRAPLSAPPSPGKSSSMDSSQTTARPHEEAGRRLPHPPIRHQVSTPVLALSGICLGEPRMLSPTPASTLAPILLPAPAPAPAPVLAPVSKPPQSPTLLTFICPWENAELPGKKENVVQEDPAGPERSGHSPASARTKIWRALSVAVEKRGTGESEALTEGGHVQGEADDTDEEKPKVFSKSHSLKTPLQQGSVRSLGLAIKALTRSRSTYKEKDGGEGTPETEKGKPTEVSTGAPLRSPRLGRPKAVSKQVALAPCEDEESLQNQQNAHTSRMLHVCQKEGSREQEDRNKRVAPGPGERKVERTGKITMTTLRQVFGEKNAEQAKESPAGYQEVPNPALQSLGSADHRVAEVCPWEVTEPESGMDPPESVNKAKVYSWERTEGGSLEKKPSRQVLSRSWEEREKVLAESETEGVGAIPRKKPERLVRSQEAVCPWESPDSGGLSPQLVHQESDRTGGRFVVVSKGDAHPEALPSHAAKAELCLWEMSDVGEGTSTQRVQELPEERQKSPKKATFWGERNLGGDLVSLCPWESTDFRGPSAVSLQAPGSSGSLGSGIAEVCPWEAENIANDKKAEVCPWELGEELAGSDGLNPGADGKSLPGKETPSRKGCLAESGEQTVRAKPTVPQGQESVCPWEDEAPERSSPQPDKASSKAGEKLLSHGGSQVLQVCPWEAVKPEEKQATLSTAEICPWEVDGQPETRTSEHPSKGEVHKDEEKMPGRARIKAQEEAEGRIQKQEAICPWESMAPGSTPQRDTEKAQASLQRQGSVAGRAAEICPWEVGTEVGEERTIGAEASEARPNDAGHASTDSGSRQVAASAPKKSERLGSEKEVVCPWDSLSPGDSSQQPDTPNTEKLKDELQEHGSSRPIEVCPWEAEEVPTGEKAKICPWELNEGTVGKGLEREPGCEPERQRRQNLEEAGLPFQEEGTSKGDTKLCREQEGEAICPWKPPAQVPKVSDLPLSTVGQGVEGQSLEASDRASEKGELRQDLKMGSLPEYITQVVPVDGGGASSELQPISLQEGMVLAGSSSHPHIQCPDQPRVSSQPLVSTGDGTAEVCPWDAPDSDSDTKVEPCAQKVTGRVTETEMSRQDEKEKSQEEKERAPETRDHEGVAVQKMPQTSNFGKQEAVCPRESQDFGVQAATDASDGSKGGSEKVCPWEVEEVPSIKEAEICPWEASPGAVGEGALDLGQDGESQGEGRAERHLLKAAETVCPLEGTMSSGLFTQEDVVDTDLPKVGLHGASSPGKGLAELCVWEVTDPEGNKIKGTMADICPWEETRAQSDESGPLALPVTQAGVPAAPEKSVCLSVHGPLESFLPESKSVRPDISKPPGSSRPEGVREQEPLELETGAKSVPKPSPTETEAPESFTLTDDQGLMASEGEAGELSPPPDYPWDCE

Key:
[1] = biological target: TRPM1 (mouse (endogenous in retina)) (UniProt Q2TV84); experiment: affinity purification with mass spectrometry; control mouse retina lysate (1% Nonidet P-40, 2 mM EDTA, 20 mM HEPES pH 7.4), pre-cleared, incubated with anti-TRPM1 or anti-LRFN2 antibodies overnight at 4°C, Dynabeads; in-gel tryptic digestion, LC-MS (Orbitrap Elite); non-immune IgG as control
[2] = biological target: T1, LRFN2 (leucine-rich repeat and fibronectin III domain-containing 2) (mouse (endogenous in retina)) (UniProt Q80TG9); experiment: as above
T1 sequence: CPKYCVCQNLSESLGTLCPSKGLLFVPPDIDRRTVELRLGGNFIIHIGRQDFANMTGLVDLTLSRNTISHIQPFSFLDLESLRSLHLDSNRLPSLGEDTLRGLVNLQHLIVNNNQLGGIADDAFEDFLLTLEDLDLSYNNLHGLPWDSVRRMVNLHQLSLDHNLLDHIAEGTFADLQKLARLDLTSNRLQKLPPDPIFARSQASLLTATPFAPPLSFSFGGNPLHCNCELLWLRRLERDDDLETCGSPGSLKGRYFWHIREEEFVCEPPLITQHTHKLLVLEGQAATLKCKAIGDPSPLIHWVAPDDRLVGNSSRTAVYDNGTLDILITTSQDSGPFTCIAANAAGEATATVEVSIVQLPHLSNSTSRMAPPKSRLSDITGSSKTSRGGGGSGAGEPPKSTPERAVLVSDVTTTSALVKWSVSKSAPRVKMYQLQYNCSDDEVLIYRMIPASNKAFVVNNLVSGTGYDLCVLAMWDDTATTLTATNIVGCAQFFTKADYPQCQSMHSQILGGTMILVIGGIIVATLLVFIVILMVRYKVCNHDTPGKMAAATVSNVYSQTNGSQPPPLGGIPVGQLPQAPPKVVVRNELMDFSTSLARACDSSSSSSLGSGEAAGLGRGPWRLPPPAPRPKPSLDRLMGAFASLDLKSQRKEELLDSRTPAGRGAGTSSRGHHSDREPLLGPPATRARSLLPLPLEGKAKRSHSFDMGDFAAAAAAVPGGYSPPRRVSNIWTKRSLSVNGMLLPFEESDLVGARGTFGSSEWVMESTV

- binding [1]: binds
Molecule: GPR179 (from UniProt E9PY61 28-2293)

- binding [2]: binds
Molecule: TRPM1 (from UniProt Q2TV84 1-1622)

- binding [1]: binds
B1: LRFN2 (leucine-rich repeat and fibronectin III domain-containing 2) (protein, UniProt Q80TG9 21-788)
chain: T1 sequence
